## Results of single-concentration screens

Sequences of proteins named here, by UniProt entry; tags and fusion partners are left off. Residues count along the entry.
UniProt Q4DA54, 1-478: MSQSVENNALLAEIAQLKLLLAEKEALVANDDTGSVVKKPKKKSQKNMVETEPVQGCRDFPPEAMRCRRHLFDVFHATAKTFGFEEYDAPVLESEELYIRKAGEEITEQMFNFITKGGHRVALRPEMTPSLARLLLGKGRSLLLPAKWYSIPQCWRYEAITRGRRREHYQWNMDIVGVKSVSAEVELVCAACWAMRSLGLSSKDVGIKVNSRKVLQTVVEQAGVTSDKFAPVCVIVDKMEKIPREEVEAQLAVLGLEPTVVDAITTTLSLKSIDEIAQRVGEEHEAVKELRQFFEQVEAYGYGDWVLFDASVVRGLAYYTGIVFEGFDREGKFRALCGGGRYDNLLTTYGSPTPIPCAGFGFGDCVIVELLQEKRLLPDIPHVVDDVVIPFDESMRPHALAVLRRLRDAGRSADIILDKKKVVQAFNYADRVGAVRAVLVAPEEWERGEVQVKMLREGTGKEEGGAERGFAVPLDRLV
UniProt P9WNZ1, whole entry: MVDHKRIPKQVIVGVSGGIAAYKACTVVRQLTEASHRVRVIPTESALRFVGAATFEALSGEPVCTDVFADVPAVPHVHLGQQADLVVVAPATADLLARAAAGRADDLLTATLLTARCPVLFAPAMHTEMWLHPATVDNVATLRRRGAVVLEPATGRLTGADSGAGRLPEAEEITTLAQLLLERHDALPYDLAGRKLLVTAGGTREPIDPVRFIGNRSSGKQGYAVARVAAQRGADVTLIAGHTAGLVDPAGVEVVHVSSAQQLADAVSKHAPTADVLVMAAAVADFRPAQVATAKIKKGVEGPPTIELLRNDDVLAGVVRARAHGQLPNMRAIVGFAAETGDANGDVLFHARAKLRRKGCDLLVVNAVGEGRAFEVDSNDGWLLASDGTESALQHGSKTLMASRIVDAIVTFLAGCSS
UniProt P9WPC5, whole entry: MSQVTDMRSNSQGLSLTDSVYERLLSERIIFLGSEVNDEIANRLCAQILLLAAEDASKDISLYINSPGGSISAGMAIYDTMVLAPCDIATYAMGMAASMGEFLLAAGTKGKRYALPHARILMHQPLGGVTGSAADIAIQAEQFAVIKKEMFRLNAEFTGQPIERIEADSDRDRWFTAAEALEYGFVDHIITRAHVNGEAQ
UniProt P9WPC3, whole entry partner: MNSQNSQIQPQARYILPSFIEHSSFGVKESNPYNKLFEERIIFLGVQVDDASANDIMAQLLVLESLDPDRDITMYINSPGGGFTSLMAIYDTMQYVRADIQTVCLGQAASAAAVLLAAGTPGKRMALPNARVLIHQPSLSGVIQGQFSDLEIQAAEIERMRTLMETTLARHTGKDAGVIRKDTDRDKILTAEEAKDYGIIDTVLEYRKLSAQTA
UniProt Q8IDJ8, 1-583: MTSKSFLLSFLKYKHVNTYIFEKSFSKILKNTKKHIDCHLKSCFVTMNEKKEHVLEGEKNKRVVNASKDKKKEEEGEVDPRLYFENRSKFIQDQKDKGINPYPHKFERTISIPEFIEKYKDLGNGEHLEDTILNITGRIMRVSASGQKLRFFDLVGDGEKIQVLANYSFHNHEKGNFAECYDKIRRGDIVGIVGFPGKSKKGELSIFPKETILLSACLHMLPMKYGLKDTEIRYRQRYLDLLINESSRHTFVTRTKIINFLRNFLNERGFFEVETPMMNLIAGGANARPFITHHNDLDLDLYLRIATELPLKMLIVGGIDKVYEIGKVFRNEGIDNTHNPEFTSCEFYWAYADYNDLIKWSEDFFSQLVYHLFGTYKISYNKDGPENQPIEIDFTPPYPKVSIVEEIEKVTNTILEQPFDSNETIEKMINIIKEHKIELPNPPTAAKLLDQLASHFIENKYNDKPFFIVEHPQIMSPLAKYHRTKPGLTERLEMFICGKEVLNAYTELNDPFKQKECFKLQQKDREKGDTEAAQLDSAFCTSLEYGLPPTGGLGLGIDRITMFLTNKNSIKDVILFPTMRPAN

Leishmania in macrophages: 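Cell assay of Leishmania donovani living inside macrophages; the read-out is not stated. Compounds at 30 µM. Higher reads as stronger inhibition (inferred: compounds with an IC50 in retests scored well above the rest). Of about 69,000 compounds tested this way, about 1,000 (1.5%) reached 50% or more in at least one test.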
TcHisRS: 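Histidine-tRNA ligase, Trypanosoma cruzi CL Brener (UniProt Q4DA54). Enzyme assay of histidyl-tRNA synthetase; the read-out is not stated. Compounds at 30 µM. The record gives no direction; compounds that gave an IC50 in retests scored well above the rest, so higher reads as stronger inhibition. About 69,000 compounds were tested under these conditions; 0.045% (about 31) showed 50% or more at least once.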
CoaBC: 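Enzyme assay of CoaBC with a phosphate dye (Biomol Green) read at 650 nm. Target: Coenzyme A biosynthesis protein CoaBC, Mycobacterium tuberculosis (UniProt P9WNZ1). Tested at 30 µM. Direction is inferred from only a few compounds that gave an IC50; most scored high, so higher reads as stronger inhibition. Most strong results did not repeat in a second test. Of about 67,000 compounds tested this way, about 40 (0.06%) reached 50% or more in at least one test.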
ClpP1P2: 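ClpP1P2, Mycobacterium tuberculosis (UniProt P9WPC5 and UniProt P9WPC3). Protease assay of ClpP1P2, read by the AMC dye that it sets free. Concentration: 50 µM. Higher reads as stronger inhibition, judged from the few compounds that gave an IC50. Most other retested compounds had strongly negative values. About 69,000 compounds were tested under these conditions; 0.015% (about 10) showed 50% or more at least once.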
PfKRS1: 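Lysine-tRNA ligase, Plasmodium falciparum 3D7 (UniProt Q8IDJ8). Enzyme assay of the cytosolic lysyl-tRNA synthetase in 384-well plates, read by luminescence. Concentration: 30 µM. Direction is inferred from only a few compounds that gave an IC50; most scored high, so higher reads as stronger inhibition. Size under these conditions: about 69,000 compounds, about 49 of them at 50% or above in at least one test.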

Each number is a percent effect as filed.
The controls that fix the scale are not given in the record; negative values are as filed.
The compounds are a random part of those screened.
Two or more numbers in one place are separate tests of the same structure; such repeats can differ widely.
A dash means the value is not listed here; it may have been measured.

Compound | Leishmania in macrophages | TcHisRS | CoaBC | ClpP1P2 | PfKRS1
CC(C)OCCCNC(=O)NC(C)c1ccc(-n2cncn2)cc1 (stereo unspecified) | 28.69% | 5.732% | - | 2.912% | 1.871%
Cc1nc[nH]c1CN1CCCn2nc(CN3CCC(F)(F)CC3)cc2C1 | -8.318% | -1.681% | 11.02% | 5.679% | 14.82%
CC(=O)Nc1ccc(CN2CCCC(c3cc4ncccc4[nH]3)C2)cc1 (stereo unspecified) | 40.95% | 1.149% | -3.11% | -20.96% | 0.5837%
COCCN1CCN(C(=O)c2ccc(C)cc2OC)[C@H]2CS(=O)(=O)C[C@H]21 | - | 0.5405% | 15.45% | 2.71% | 1.168%
CN1CCC2(CC1)CN(CC1CC1)CC21CCNC1=O (stereo unspecified) | - | 0% | 4.071% | -20.51% | 0.04589%
CN1CC(=O)N(c2ccccc2)CC12CCN(Cc1nccs1)C2.O=C(O)C(F)(F)F.O=C(O)C(F)(F)F (stereo unspecified) | -50.03% | - | - | - | -
CN1CC(=O)N(c2ccccc2)CC12CCN(Cc1nccs1)C2 (stereo unspecified) | - | 0.5405% | 2.157% | 5.778% | 4.888%
Cc1ccc(C(=O)N2CCCC2c2nnc3n2CCCCC3)s1 (stereo unspecified) | 22.11% | 5.263% | -4.018% | -6.595% | 3.943%
[H][C@@]12CCN(c3ncccn3)C[C@]1(C(=O)NCCc1ccccn1)CCO2 | 0.8573% | - | - | - | -
CS(=O)(=O)NCCNCc1ccc(Br)s1 | - | 1.657% | -5.825% | 7.115% | 0.2278%
Cc1noc(C(C)C)c1C(=O)NCCCN1CCC(C)CC1 | 38.97% | 0.5714% | 3.345% | -1.469% | 1.895%
Fc1ccc(CN2CCCn3nnc(COCC4CC4)c3C2)cc1 | - | 9.184% | 1.112% | 12.62% | -2.578%
CCc1ccc(C(=O)NCC2CCCN2CC)o1 (stereo unspecified) | -15.88% | 10.5% | -0.3822% | -7.182% | 2.169%
COCCS(=O)(=O)NC(=O)c1nnn(-c2ccc(F)cc2)c1C1CC1 | 13.92% | -8.621% | 2.778% | 6.908% | -1.05%
Cc1ccc2c(c1)C1(CCNCC1)CN2C(=O)CN(C)C.O=C(O)C(F)(F)F.O=C(O)C(F)(F)F | 32.37% | - | - | - | -
CNc1nc(C)c(C(=O)N2C[C@@H](C(=O)O)[C@H](C3CC3)C2)s1 | -13.58% | 6.957% | -12.02% | 4.704% | -0.3986%
CCN(CC)S(=O)(=O)CC(=O)N1CCc2ccc(C)cc21 | 14.27% | 13.81% | 1.942% | -8.62% | 4.328%
COCc1nnc(-c2cccc(C(=O)N(C(C)C)C3CCC3)c2)o1 | 26.25% | -1.176% | -0.2457% | -8.814% | -1.036%
COc1cccc(C(C(=O)O)N(C)Cc2ccc(C)o2)c1 (stereo unspecified) | 16.3% | 5.473% | -1.235% | -3.714% | 2.724%
[H][C@]12CN(c3nc4ccccc4s3)CC[C@@]1(O)CCN(S(=O)(=O)N(C)C)C2 | -11.62% | - | - | - | -
O=C(O)C(F)(F)F.[H][C@]12CN(Cc3cc(C)on3)C[C@@]1([H])OCCN(C(=O)c1ccco1)C2 | 17.91% | - | - | - | -
CCNC(=O)NC(=O)CNC(C)(C)c1ccc2c(c1)OCCO2 | 25.99% | 6.395% | 9.794% and 20.18% | -10.31% | 3.738%
Cn1cc(NC(=O)c2cc3c(s2)CCCC3)cn1 | 17.11% | 7.018% | 10.68% | -4.567% | 10.05%
CC(C)(C)c1csc(C2CCCCN2C(=O)CCn2cncn2)n1 (stereo unspecified) | -20.96% | 7.792% | -3.659% | 0.6582% | -2.507%
CCNC(=O)[C@@H]1C[C@@H](N)CN1Cc1ccc2cccc(Cl)c2n1 | 29.87% | 7.065% | 2.066% | 17.06% | -4.514%
CN(C)C1(CNC(=O)c2c(O)cc(Cl)cc2Cl)CCOCC1 | -4.723% | 9.901% | 1.823% | -3.071% | 10.96%
O=C(CCC1CCCC1)N1CCC(c2cc3ncccc3c(O)n2)CC1 | 17.44% | -1.521% | 2.101% | -8.521% | 0.1823%
CC(=O)N1[C@H](CN(C)C)C[C@@H]2CN(C(=O)c3cncc(C)c3)CC[C@@H]21 | - | 4.854% | 9.395% | -3.175% | -0.184%
CN(C)CCCN(Cc1cnn(C)c1)Cc1ccco1.O=C(O)CC(O)(CC(=O)O)C(=O)O | -24.14% | - | - | - | -
O=C(O)C(F)(F)F.[H][C@@]12OCCN(S(=O)(=O)C3CC3)[C@@]1([H])CC[C@@H]2Oc1cccnc1 | 0.6445% | - | - | - | -
CC(=O)c1c(O)ccnc1C(F)(F)F | -0.8438% | 7.937% | -2.444% | -3.872% | 0.3062%
c1ccc2c(N3CCOCC3)cnnc2c1 | -1.927% | 3.704% | 10.59% | 7.921% | 5.794%
CCc1nc(COc2ccc(N(C)C(C)=O)cc2)no1 | -52.14% | -4.712% | -7.066% | 22.39% | -7.744%
CCS(=O)(=O)N1CCC2(CN(C(=O)c3cn(C)cn3)C2)C1 | 6.251% | 3.448% | -3.074% | 0.8602% | 0.9486%

The last 2 entries again:

- CCc1nc(COc2ccc(N(C)C(C)=O)cc2)no1 | Leishmania in macrophages: -52.14%; TcHisRS: -4.712%; CoaBC: -7.066%; ClpP1P2: 22.39%; PfKRS1: -7.744%
- CCS(=O)(=O)N1CCC2(CN(C(=O)c3cn(C)cn3)C2)C1 | Leishmania in macrophages: 6.251%; TcHisRS: 3.448%; CoaBC: -3.074%; ClpP1P2: 0.8602%; PfKRS1: 0.9486%

Measurements from “University of Dundee, Small-Polar-MMV Screening Library” (2021), ChEMBL document CHEMBL3988442.